Experimental data: PubChem BioAssay AID1053208 (Peter MacCallum Cancer Centre, 2014)
Shown is an unselected part of about 17,000 reagents. In the full data, 788 (4.7%) were called active. 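Calls rest on z-score classes alone; an extra cut-off of viability at most 70% of control was not applied to them.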 Further read-outs or replicates are left out here.

Test: 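Find knock-downs that sensitise mouse osteosarcoma cells to doxorubicin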 (primary screen)
System: mouse osteosarcoma cells, early-passage culture from an engineered mouse model of fibroblastic bone tumour
Knock-down reagent: siRNA pool against mouse genes, 40 nM
Timing: about 120 h (48 h before drug, then 72 h with drug)
Treatment: doxorubicin 100 nM for 72 h, roughly 30-40% inhibitory dose
Detection: 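Luminescent ATP signal taken as viability with or without 100 nM doxorubicin for 72 h; mean of two wells set against non-targeting siRNA and turned into robust z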
Scale: viability z-score with doxorubicin: higher = more viable cells under doxorubicin; viability z-score without drug: higher = more viable cells with knock-down alone
Call rule: 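Called active if knock-down leaves viability unchanged without drug (z within -2 to 2) but lowers it with doxorubicin (z at or under -2)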

The first 2 records as a preview:
gene knocked down | PubChem SID | combined z-score class | viability z-score with doxorubicin | viability z-score without drug | Outcome
Lysmd1 | SID152313462 | no change with or without drug | -1.12 | -0.51 | inactive
Plce1 | SID152262219 | no change with or without drug | 1.91 | 0.84 | inactive

The list itself, from the start:
gene knocked down | PubChem SID | combined z-score class | viability z-score with doxorubicin | viability z-score without drug | Outcome
Lysmd1 | SID152313462 | no change with or without drug | -1.12 | -0.51 | inactive
Plce1 | SID152262219 | no change with or without drug | 1.91 | 0.84 | inactive
Hpcal4 | SID152262037 | no change with or without drug | 0.34 | 0.51 | inactive
Bsx | SID152331404 | no change with or without drug | -0.79 | -0.17 | inactive
Usp42 | SID152317564 | no change with or without drug | 0.11 | -0.84 | inactive
Mical3 | SID152314894 | no change with or without drug | 0.34 | -0.84 | inactive
Tac1 | SID152311657 | no change with or without drug | 0.67 | 0.84 | inactive
Nfya | SID152305662 | no change with or without drug | 1.35 | -0.51 | inactive
Slc10a4 | SID152270938 | no change with or without drug | -0.45 | -1.85 | inactive
Xylt1 | SID152304601 | no change with or without drug | 0.9 | 0.67 | inactive
AI315068 | SID152310677 | no change with or without drug | -0.22 | -0.17 | inactive
Eci1 | SID152273153 | no change with or without drug | 1.69 | 0.67 | inactive
Kel | SID152322416 | no change with or without drug | 1.12 | 1.01 | inactive
Chrnd | SID152259877 | no change with or without drug | 0 | -0.51 | inactive
Wdfy2 | SID152308084 | no change with or without drug | 1.46 | 0.51 | inactive
Actr5 | SID152295507 | no change with or without drug | 1.46 | -0.17 | inactive
Cdc25b | SID152331454 | no change with or without drug | 0.45 | -0.51 | inactive
Psmd7 | SID152338112 | no change with or without drug | 0.45 | -0.84 | inactive
Zfp85os | SID152335724 | no change with or without drug | 0.22 | 1.85 | inactive
Ddx20 | SID152265823 | no change with or without drug | -0.9 | -0.17 | inactive
Or51a25 | SID152309337 | no change with or without drug | 1.57 | 0.84 | inactive
Or5b97 | SID152332389 | no change with or without drug | -0.22 | -0.17 | inactive
Acin1 | SID152281568 | no change with or without drug | -1.8 | -1.01 | inactive
Socs4 | SID152329212 | no change with or without drug | -0.45 | 1.52 | inactive
Elf5 | SID152299818 | high cell count without drug only | 0.67 | 2.53 | inactive
Taf4 | SID152317487 | no change with or without drug | -1.12 | -1.35 | inactive
1700008J07RIK | SID152268842 | no change with or without drug | -0.67 | 0.67 | inactive
Or13a18 | SID152260503 | no change with or without drug | -0.34 | -1.69 | inactive
Tpm1 | SID152261398 | no change with or without drug | 0.67 | 0.51 | inactive
Cyth4 | SID152277199 | no change with or without drug | 0.79 | 0.84 | inactive
Krt10 | SID152300669 | no change with or without drug | -0.22 | -0.51 | inactive
Brcc3dc | SID152292712 | high cell count with and without drug | 2.47 | 2.36 | inactive
Rwdd4a | SID152311221 | no change with or without drug | 0.67 | -0.17 | inactive
Numbl | SID152302524 | no change with or without drug | -1.12 | -1.35 | inactive
Cul4b | SID152292766 | no change with or without drug | 0.45 | 0.17 | inactive
Fut7 | SID152327086 | no change with or without drug | 0.22 | 1.18 | inactive
Fcgr4 | SID152264568 | no change with or without drug | -0.45 | 0.51 | inactive
Trmt5 | SID152321202 | no change with or without drug | 0.45 | 0.51 | inactive
Ostf1 | SID152342115 | no change with or without drug | 1.8 | 0.51 | inactive
Ska2 | SID152277236 | high cell count without drug only | 1.8 | 2.02 | inactive
Cep19 | SID152305979 | no change with or without drug | 1.12 | 0 | inactive
Kcna1 | SID152313389 | no change with or without drug | -0.9 | 0.17 | inactive
Serpinb2 | SID152300397 | no change with or without drug | -0.22 | 1.85 | inactive
Prrt1 | SID152318754 | no change with or without drug | 0.79 | 0.34 | inactive
Ift27 | SID152313828 | no change with or without drug | 0.22 | 0.17 | inactive
Ces4a | SID152260702 | no change with or without drug | 1.35 | 1.01 | inactive
Prox2 | SID152285129 | no change with or without drug | -0.45 | 0.51 | inactive
Tal1 | SID152286681 | no change with or without drug | -0.67 | 0.17 | inactive
Sh2b1 | SID152305539 | no change with or without drug | -1.46 | -1.18 | inactive
Ldah | SID152277292 | high cell count without drug only | 1.12 | 2.19 | inactive
Gtpbp4 | SID152289803 | low cell count without drug only | -0.9 | -2.19 | inactive
Ttc14 | SID152299190 | no change with or without drug | -1.35 | -1.52 | inactive
1700065D16Rik | SID152293365 | high cell count without drug only | 1.01 | 2.7 | inactive
Chst8 | SID152308183 | no change with or without drug | 0.45 | 1.18 | inactive
Rarres2 | SID152340946 | no change with or without drug | 0.45 | 0.84 | inactive
Or4k52 | SID152297610 | no change with or without drug | 1.01 | 0.17 | inactive
Clock | SID152289616 | no change with or without drug | 0 | 1.18 | inactive
Irf4 | SID152291136 | no change with or without drug | 0.9 | -0.17 | inactive
Tubg1 | SID152318405 | no change with or without drug | -0.22 | -1.52 | inactive
Cln8 | SID152329589 | no change with or without drug | -1.57 | -0.51 | inactive
Vmn1r226 | SID152298574 | no change with or without drug | 1.12 | -0.34 | inactive
Ccdc157 | SID152333097 | no change with or without drug | 0.11 | -0.17 | inactive
Leng9 | SID152314624 | no change with or without drug | 1.12 | 0.84 | inactive
